The structures appear in SMILES notation. Structures were worked out from names or drawings and are uncertain.

Protein sequences, listed by entry. Tags and fused reporters are not part of them. Residues count along the entry.
UniProt P35968, 806-1356 limits assumed: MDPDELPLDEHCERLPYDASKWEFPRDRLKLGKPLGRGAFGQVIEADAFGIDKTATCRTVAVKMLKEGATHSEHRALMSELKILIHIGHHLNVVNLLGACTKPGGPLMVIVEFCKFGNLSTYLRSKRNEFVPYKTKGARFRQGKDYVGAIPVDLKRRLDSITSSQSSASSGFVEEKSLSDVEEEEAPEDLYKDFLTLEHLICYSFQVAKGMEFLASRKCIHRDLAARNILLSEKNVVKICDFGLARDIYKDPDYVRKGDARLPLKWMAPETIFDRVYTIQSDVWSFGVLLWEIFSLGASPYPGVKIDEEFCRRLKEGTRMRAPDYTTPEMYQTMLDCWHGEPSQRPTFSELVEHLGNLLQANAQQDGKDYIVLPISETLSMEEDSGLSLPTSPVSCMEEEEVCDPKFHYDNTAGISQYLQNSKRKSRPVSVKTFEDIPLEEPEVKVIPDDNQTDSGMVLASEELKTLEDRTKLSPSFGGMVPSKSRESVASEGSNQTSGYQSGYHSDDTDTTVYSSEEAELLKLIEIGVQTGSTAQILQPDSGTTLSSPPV

This experiment concerns the target VEGFR2 (KDR) (Homo sapiens, UniProt P35968). Nature of the experiment: In Vitro Receptor Tyrosine Kinase Assay (VEGF Receptor KDR). The following applies: read-out: VEGFR_IC50_UM; recombinant GST-VEGFR2 806-1356, DELFIA assay, ATP 0.6 uM, enzyme 5 nM. From the text:
In Vitro Receptor Tyrosine Kinase Assay (VEGF Receptor KDR)
This test measures the ability of compounds to inhibit the enzymatic activity of recombinant human VEGF receptor enzymatic activity.
A 1.6-kb cDNA corresponding to the catalytic domain of VEGFR2 (KDR) (Genbank accession number AF035121 amino acid 806 to 1356) is cloned into the Pst I site of the pDEST20 Gateway vector (Invitrogen) for the production of a GST-tagged version of that enzyme. This construct is used to generate recombinant baculovirus using the Bac-to-Bac™ system according to the manufacturer's instructions (Invitrogen).
The GST-VEGFR2806-1356 protein is expressed in Sf9 cells (Spodoptera frugiperda) upon infection with recombinant baculovirus construct. Briefly, Sf9 cells grown in suspension and maintained in serum-free medium (Sf900 II supplemented with gentamycin) at a cell density of about 2×10^6 cells/ml are infected with the above-mentioned viruses at a multiplicity of infection (MOI) of 0.1 during 72 hours at 27° C. with agitation at 120 rpm on a rotary shaker. […]
Inhibition of VEGFR/KDR is measured in a DELFIA™ assay (Perkin Elmer). […] Phosphorylated product is detected by incubation with Europium-labeled anti-phosphotyrosine MoAb. After washing the plates, bound MoAb is detected by time-resolved fluorescence in a Gemini SpectraMax reader (Molecular Devices). […]

For the compound `CC(=O)N1CC(NC(=O)Nc2ccc(Oc3ccnc4cc(-c5ccc(CN6CC(N)C6)cn5)sc34)c(F)c2)C1` [Compound 46], the IC50 stood at 193 nM.

These data come from patent US20130090327A1, “Inhibitors of Protein Tyrosine Kinase Activity” (METHYLGENE INC., priority 2011, published 2013).
